Earlier results, collected in EP3155636B1, “A PROBE FOR EXTRACTION OF MOLECULES OF INTEREST FROM A SAMPLE” (JP Scientific Limited, priority 2014, dated 2015).

System: plasma proteins
Settings: given to explain the higher LOQ in plasma

For CN1C(=O)CN=C(c2ccccc2)c2cc(Cl)ccc21 [DZP, diazepam], the “bound to plasma proteins” value is listed as 98%.
